Experimental data as given in patent US20230076977A1, “UTROPHIN UPREGULATION COMPOUNDS FOR DUCHENNE MUSCULAR DYSTROPHY THERAPY” (THE TRUSTEES OF THE UNIVERSITY OF PENNSYLVANIA, priority 2020, published 2023).
Starred links: 1 amine or outer side, 2 acyl side, 3 side chain; linkers in the order of their positions; H or OH if unused. Positions of bridges follow the written chain, without caps; N, C: chain ends. Non-standard residues stand in square brackets, D forms with d. Residues, ends and D or L forms follow the SMILES beside them. Chains are numbered I, II in the order given. Hexamethylenediamine = C(CCCN[*:2])CCN[*:1]; Dip = N[C@H](C(=O)O)C(c1ccccc1)c1ccccc1; Chg = N[C@H](C(=O)O)C1CCCCC1; NMeA = CN[C@@H](C)C(=O)O

Test system: 5′- and 3′-UTRs of human utrophin
Assay: Screening assay: C2C12 stable reporter line, CMV-driven luciferase flanked by utrophin 5′ and 3′ UTRs
Assay type: cell-based
Details: for H2LPS: Curve Shape Score*(Upper limit-Lower Limit)*EC50score*Fold Diff Score, unitless; for Cluster: clustering of dose-response profiles (5 nM to 10 μM), complete linkage, Euclidean distance; for Curve shape score (0/1): success of dr4p1 4-parameter fit
Description: The construct for the HTS assay was generated by cloning the 5′- and 3′-UTRs of human utrophin into pGL4:50-hygro (Promega, Madison, Wis.) at the 5′ and 3′ of the luciferase coding sequence and has been described previously by Moorwood. […] For the counterscreening assay, the pGL4:50-hygro plasmid was used alone. Low passage C2C12 cells obtained from ATCC were transfected with either constructs, stably selected with 500 μg/mL hygromycin and subcloned using two rounds of serial dilutions to isolate single cell-derived colonies in a 96 wells plate format. […] The selected clones were cultured in presence of 100 μg/mL hygromycin B and were transferred to the HTS Facility at the University of Pennsylvania for implementation into a 384-wells format suitable for HTS.
The construct for generating the screening C2C12 cell line carrying the 5′ and 3′UTR of the human utrophin gene is described by Moorwood. […] Some compounds could increase light emission independently from the 5′ and 3′UTR regions, i.e., by activating the CMV promoter or increasing overall mRNA synthesis. Therefore, in order to distinguish such compounds, a counterscreening cell line stably expressing only the CMV-driven luciferase gene was generated (FIG. 1A). To determine optimal conditions for the implementation in a 384-wells high-throughput format, evaluated were DMSO tolerance, optimal cell density and incubation time (FIG. 5A-5C).
A first criterion for evaluating the performance of the selected hits was whether their activity was dose-dependent. After performing a dose-response analysis (5 nM to 10 μM) of each hit in the screening cell line, a clustering approach was applied (complete linkage with Euclidean distance measurement) to highlight similarities between compounds profiles. […] By modeling each dose-response trace with a 4-parameter logistic model applied to the Z— score values (FIG. 2B), the EC50 of each molecule was calculated.
Cells were allowed to attach overnight at 37° C., 5% CO2 in a humidified chamber. […] Compounds were added to a final concentration of 1 μM and 100 nM in 0.2% DMSO. Columns 1 and 23 were treated with 0.2% DMSO (negative control). Columns 2 and 24 were treated with 100 nM Panobinostat (positive control). Cells were incubated for 24 hours at 37° C., 5% CO2. […] Luminescence was measured on an EnVisionXcite Multilabel Plate Reader (PerkinElmer), using ultrasensitive luminescence measurement technology.

Row | Compound | Fold diff score (0 to 2) | H2LPS | Cluster | Curve shape score (0/1)
1 | CC(C)[C@H](C(=O)Nc1ccc(C(=O)NO)cc1)c1ccccc1 [AR-42] | 2 (2 if fold difference>10) | 239.74 | 4 (Clusters 1 and 4 included compounds with high potency and EC50 on the order of 10 nM and 100-700 nM respectively) | 1
2 | CC(=O)O/N=C1/C(=C2/C(=O)Nc3cc(Br)ccc32)Nc2ccccc21 [BIO-acetoxime] | 0 (0 if fold difference<2) | 0 | – | 1
3 | O=C1Nc2cc(Br)ccc2/C1=C1/Nc2ccccc2/C1=N\O [BIO] | – | 24 | – | 1
4 | CN[C@@H](C)C(=O)N[C@H](C(=O)N1CCC[C@H]1C(=O)N[C@H](C(=O)NCCCCCCNC(=O)[C@@H](NC(=O)[C@@H]1CCCN1C(=O)[C@@H](NC(=O)[C@H](C)NC)C1CCCCC1)C(c1ccccc1)c1ccccc1)C(c1ccccc1)c1ccccc1)C1CCCCC1 [BV-6] (I: H-[NMeA][Chg]P[Dip] / II: H-[NMeA][Chg]P[Dip]; linker I:C-II:C via Hexamethylenediamine) | 2 (2 if fold difference>10) | 42.02 | – | 1
5 | O=C(/C=C/c1cccc(S(=O)(=O)Nc2ccccc2)c1)NO [Belinostat] | 2 (2 if fold difference>10) | 173.65 | 4 (Clusters 1 and 4 included compounds with high potency and EC50 on the order of 10 nM and 100-700 nM respectively) | 1
6 | Cc1nc2ccc(-n3ncc(C(=O)c4cc5ccccc5[nH]4)c3N)cc2[nH]1 [CH5183284] | 0 (0 if fold difference<2) | 0 | – | 0
7 | C#Cc1cccc(Nc2ncnc3cc(OC)c(OCCCCCCC(=O)NO)cc23)c1 [CUDC-101] | 2 (2 if fold difference>10) | 68.68 | – | 1
8 | COc1ccc(-c2nc(N3CCOCC3)c3sc(CN(C)c4ncc(C(=O)NO)cn4)cc3n2)cn1 [CUDC-907] | 0 (0 if fold difference<2) | 0 | – | 1
9 | CCN(CC)Cc1ccc2cc(COC(=O)Nc3ccc(C(=O)NO)cc3)ccc2c1 [Givinostat] | 2 (2 if fold difference>10) | 186.4 | 4 (Clusters 1 and 4 included compounds with high potency and EC50 on the order of 10 nM and 100-700 nM respectively) | 1
10 | O=C1Cc2c([nH]c3ccc(Br)cc23)-c2ccccc2N1 [Kenpaullone] | 1 (1 if fold difference>2) | 51.67 | – | 1
11 | O=C(/C=C/c1ccc(CN(CCO)CCc2c[nH]c3ccccc23)cc1)NO [LAQ824, Dacinostat] | 0 (0 if fold difference<2) | 0 | – | 0
12 | Cc1cc(C)cc(C(=O)NOCCCCCC(=O)NO)c1 [LMK-235] | 2 (2 if fold difference>10) | 173.61 | 4 (Clusters 1 and 4 included compounds with high potency and EC50 on the order of 10 nM and 100-700 nM respectively) | 1
13 | CN(C)c1ccc(C(=O)NCCCCCCC(=O)NO)cc1 [M344] | 1 (1 if fold difference>2) | 74.15 | – | 1
14 | O=C(Nc1ccc([N+](=O)[O-])cc1Cl)c1cc(Cl)ccc1O [Niclosamide] | 0 (0 if fold difference<2) | 0 | – | 0
15 | Cc1cc(O)c(-c2ccc([C@@H](C)CN)cc2)c2c1[nH]c(=O)c1sccc12.Cl [OTS514 hydrochloride] | 0 (0 if fold difference<2) | 0 | – | 0
16 | CCCCc1nc2cc(/C=C/C(=O)NO)ccc2n1CCN(CC)CC [Pracinostat] | 2 (2 if fold difference>10) | 225.49 | 4 (Clusters 1 and 4 included compounds with high potency and EC50 on the order of 10 nM and 100-700 nM respectively) | 1
17 | Cn1cc(CNCC2CCN(c3ncc(C(=O)NO)cn3)CC2)c2ccccc21 [Quisinostat] | 0 (0 if fold difference<2) | 0 | – | 0
18 | C=C(C)CSc1nnc2c(n1)[nH]c1ccccc12 [Rbin-1] | 0 (0 if fold difference<2) | 0 | – | 0
19 | O=C(CCCCCN1C(=O)c2cccc3cccc(c23)C1=O)NO [Scriptaid] | 2 (2 if fold difference>10) | 124.01 | – | 1
20 | CC(/C=C/C(=O)NO)=C\[C@@H](C)C(=O)c1ccc(N(C)C)cc1 [Trichostatin A] | 2 (2 if fold difference>10) | 276.27 | – | 1
21 | COc1cc(NC(=O)c2ccccn2)ccc1Cl [VU 0361737] | 0 (0 if fold difference<2) | 0 | – | 0
22 | CC(C)Oc1ccc2c(=O)c(-c3ccccc3)coc2c1 [ipriflavone] | 0 (0 if fold difference<2) | 0 | – | 0
23 | Abexinostat [PCI-24781] | 2 (2 if fold difference>10) | 176.72 | 4 (Clusters 1 and 4 included compounds with high potency and EC50 on the order of 10 nM and 100-700 nM respectively) | 1
24 | Panobinostat | 1 (1 if fold difference>2) | 88.24 | – | 1
